Measured values published in article PMC10945694.
No constants are given. Whether binding was seen depends on the method and setting. In cells and extracts the contact can be indirect. These calls come from enrichment with a bait or labelling near it, and not all partners need be listed. One block for each molecule: values may come before it.

Protein sequences, listed by entry. Tags and fused reporters are not part of them.
UniProt Q6PDM2: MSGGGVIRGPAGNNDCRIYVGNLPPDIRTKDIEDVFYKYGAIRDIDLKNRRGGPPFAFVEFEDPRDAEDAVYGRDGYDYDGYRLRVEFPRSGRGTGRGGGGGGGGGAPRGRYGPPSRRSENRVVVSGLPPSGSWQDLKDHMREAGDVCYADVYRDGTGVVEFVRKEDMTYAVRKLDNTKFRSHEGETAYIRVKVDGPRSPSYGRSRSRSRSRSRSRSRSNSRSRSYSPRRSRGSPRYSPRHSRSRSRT
UniProt Q9R0U0: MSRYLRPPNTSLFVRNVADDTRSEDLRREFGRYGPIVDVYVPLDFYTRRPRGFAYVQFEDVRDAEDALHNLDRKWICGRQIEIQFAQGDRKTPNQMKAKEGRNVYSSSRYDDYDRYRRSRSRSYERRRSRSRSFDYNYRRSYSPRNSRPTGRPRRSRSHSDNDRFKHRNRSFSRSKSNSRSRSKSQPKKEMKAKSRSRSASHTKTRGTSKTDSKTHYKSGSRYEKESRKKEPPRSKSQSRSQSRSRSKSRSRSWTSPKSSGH
UniProt Q8BTI8: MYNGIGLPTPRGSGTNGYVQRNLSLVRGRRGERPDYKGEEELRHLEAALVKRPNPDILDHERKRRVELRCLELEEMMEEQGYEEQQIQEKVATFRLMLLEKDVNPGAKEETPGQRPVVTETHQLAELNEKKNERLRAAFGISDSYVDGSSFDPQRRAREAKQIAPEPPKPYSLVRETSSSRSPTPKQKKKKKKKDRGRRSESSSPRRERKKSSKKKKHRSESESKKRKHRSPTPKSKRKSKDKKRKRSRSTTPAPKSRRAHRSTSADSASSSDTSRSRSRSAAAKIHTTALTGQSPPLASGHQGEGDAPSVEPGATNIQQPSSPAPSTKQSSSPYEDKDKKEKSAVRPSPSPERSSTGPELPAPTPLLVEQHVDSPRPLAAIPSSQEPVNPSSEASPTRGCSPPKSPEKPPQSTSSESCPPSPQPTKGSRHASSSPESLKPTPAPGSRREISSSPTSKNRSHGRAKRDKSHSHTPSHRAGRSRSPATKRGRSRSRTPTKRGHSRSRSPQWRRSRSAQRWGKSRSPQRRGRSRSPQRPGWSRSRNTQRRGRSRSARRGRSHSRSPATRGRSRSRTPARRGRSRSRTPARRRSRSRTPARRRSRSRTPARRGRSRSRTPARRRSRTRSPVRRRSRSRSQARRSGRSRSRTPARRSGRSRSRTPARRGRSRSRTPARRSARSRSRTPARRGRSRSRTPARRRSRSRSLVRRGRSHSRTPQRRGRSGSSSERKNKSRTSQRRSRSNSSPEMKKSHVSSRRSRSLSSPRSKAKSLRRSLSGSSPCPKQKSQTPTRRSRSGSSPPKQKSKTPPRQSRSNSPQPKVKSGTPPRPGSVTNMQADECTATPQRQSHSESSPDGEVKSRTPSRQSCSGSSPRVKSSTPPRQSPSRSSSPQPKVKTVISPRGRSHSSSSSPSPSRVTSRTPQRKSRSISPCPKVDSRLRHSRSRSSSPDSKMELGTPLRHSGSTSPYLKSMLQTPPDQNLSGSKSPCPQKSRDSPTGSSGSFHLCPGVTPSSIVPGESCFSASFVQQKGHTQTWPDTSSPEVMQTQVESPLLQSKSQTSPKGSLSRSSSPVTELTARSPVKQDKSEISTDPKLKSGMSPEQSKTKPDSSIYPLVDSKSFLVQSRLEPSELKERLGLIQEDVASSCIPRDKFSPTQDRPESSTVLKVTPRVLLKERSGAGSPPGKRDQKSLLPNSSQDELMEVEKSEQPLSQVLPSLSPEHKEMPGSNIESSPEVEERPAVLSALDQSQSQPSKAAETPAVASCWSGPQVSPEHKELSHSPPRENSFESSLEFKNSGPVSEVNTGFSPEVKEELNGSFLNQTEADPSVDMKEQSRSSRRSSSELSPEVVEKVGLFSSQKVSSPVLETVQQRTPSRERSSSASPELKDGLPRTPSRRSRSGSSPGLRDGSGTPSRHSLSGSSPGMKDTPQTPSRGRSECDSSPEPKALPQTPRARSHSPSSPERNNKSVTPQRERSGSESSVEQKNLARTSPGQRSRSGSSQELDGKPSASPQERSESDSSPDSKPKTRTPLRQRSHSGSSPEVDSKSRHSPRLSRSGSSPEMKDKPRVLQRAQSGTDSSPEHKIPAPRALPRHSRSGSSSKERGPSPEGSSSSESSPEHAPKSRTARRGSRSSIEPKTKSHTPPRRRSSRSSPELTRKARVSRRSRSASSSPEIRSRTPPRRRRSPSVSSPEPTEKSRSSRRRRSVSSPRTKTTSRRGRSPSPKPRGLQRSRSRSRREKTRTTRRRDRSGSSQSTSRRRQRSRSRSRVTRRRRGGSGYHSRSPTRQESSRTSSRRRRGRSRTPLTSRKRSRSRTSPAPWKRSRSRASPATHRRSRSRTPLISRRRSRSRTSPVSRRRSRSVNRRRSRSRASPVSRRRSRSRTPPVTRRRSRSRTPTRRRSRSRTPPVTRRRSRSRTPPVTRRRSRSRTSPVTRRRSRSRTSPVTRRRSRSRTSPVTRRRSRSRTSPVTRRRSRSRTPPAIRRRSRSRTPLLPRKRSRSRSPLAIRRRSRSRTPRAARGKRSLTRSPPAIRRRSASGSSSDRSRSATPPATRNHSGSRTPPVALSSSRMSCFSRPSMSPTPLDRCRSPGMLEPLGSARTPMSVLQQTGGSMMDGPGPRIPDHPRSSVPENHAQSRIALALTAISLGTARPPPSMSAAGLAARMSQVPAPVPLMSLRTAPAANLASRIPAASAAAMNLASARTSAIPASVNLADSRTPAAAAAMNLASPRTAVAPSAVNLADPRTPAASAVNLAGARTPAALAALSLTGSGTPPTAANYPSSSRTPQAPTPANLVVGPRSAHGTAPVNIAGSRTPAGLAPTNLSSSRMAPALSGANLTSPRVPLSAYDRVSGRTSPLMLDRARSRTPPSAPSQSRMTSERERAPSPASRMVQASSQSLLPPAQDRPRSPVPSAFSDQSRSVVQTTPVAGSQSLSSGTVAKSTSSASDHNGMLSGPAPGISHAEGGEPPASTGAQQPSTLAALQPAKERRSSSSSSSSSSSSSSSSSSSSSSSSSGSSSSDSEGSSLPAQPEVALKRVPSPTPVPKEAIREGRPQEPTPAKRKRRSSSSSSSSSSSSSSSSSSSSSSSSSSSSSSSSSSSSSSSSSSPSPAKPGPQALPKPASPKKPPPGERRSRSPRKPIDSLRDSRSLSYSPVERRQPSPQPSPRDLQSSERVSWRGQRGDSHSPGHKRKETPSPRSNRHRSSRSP

Biological target: Serine/arginine-rich splicing factor 1 (SRSF1), endogenous in mouse testis (mouse (endogenous in 5 dpp mouse testis)) (UniProt Q6PDM2)
Experiment: affinity purification with mass spectrometry; IP with SRSF1 antibody (sc-33652) and normal mouse IgG as control from 5 dpp mouse testis extracts, protein A agarose, 4°C; Q-Exactive mass spectrometry, Mascot search against the mouse database

binding: binds
Molecule: SRSF10, endogenous in mouse testis (from UniProt Q9R0U0 1-262)

binding: binds
Molecule: SRRM2, endogenous in mouse testis (from UniProt Q8BTI8 1-2703)

The remaining lines, values behind:

B1: RBM15, endogenous in mouse testis (protein, UniProt Q0VBL3 1-962)
chain: MRSAGREPLPRRSPRWRRASPLCETSAGWRVSQLRRDDLRRPSTMKGKERSPVKPKRSRGGEDSSSRGERSKKLGGSGGSNGSSSGKTDSGGSRRSLHLDKSSSRGGSREYETGGGSSSSRLHSYSSPSTKNSSGGGESRSSSRGGGGESRSSGAASSAPGGGDGVEYKTLKISELGSQLSDEAVEDGLFHEFKRFGDVSVKISHLSGSGSGDERVAFVNFRRPEDARAAKHARGRLVLYDRPLKIEAVYVSRRRSRSPLDKDAYAPSSSVVGTSVGSHRHAPGGGGGQRSLSPGGAALGYRDYRLQQLALGRLPPPPPPPLPRELERERDYPFYDRVRPAYSLEPRVGAGAGAAPFREVDEISPEDDQRANRTLFLGNLDITVTENDLRRAFDRFGVITEVDIKRPSRGQTSTYGFLKFENLDMSHRAKLAMSGKIIIRNPIKIGYGKATPTTRLWVGGLGPWVPLAALAREFDRFGTIRTIDYRKGDSWAYIQYESLDAAHAAWTHMRGFPLGGPDRRLRVDFADTEHRYQQQYLQPLPLTHYELVTDTFGHRAPDPLRSARDRTPPLLYRDRDRDLYTDSDWVPPPPPVRERSARAATSAVTAYEPLDSLDRRRDGWSLDRDRGDRDLPSSRDQPRKRRLPEESGGRHLDRSPESERPRKQRHCTPSPDRSPELSSNRDRYNSDNDRSSRLLLLERSSPVRDRRGSLEKSQSDKRDRKNSASAERDRKHRTAAPTEGKNPLKKEDRSDGNAPSASTSSSKQKPPSQKQDGGTAPVAASSPKLCLAWQGMLLLKNSNFPSNMHLLQGDLQVASSLLVEGSTGGKVAQLKITQRLRLDQPKLDEVTRRIKVAGPNGYAILLAVPGSSDSRSSSSSATSDTAASTQRPLRNLVSYLKQKQAAGVISLPVGGNKDKENTGVLHAFPPCEFSQQFLDSPAKALAKSEEDYLVMIIVRAKLVNSG
binding: binds

B2: SF3A2, endogenous in mouse testis (protein, UniProt Q62203 1-475)
chain: MDFQHRPGGKTGSGGVASSSESNRDRRERLRQLALETIDINKDPYFMKNHLGSYECKLCLTLHNNEGSYLAHTQGKKHQTNLARRAAKEAKEAPAQPAPEQVKVEVKKFVKIGRPGYKVTKQRDTEMGQQSLLFQIDYPEIAEGIMPRHRFMSAYEQRIEPPDRRWQYLLMAAEPYETIAFKVPSREIDKAEGKFFFLQFHFKMEKPPAPPSLPAGPPGVKRPPPPLMNGLPPRPPLPDALPPPPPGGLPLPPMPPTGPAPSGPPGPPQMPPPAPGVHPPAPVVHPPTSGVHPPAPGVHPPAPVVHPPTSGVHPPAPGVHPPTPGVHPPAPGVHPPAPGVHPPAPGVHPPTPGVHPPAPGVHPPAPGVHPPAPGVHPPPSAGVHPQAPGVHPPAPAVHPQAPGVHPPAPGIHPQAPGVHPQPPPGVHPAAPGVHPQPPGVHPSNPGVHPAPMPPMLRPPLPSDGPGNMPPPPPGN
binding: binds

B3: SART1, endogenous in mouse testis (protein, UniProt Q9Z315 1-806)
chain: MGSSKKHRGEKEAAGTTAAAGTGGTTEQPPRHREHKKHKHRSSGGGSSGGERRKRSRERGSERGSGRRGAEAEARSGAHGRERSQAEPSERRVKREKRDDGYEAAASSKASSGDASSLSIEETNKLRAKLGLKPLEVNAVKKEAGTKEEPVAADVINPMALRQREELREKLAAAKEKRLLNQKLGKIKTLGEDDPWLDDTAAWIERSRQLQKEKDLAEKRAKLLEEMDQEFGVSTLVEEEFEQRRQDLYSARDLQGLTVEHAIDSFREGETVVLTLKDKGVLQDGEDVLVNVNMVDKERADKNVELRKKKPDYLPYAEDESVDDLAQQKPRSILAKYDEELEGERPHSFRLEQGGMADGLRERELEEIRTKLRLQAQSLSSVGPRLASEYLSPEEMVTFKKTKRRVKKIRKKEKEVIMRADDLLPLGDQTQDGDFGSRLRGRGRRRVPEVEEEALEDEEKDPVAQPPPSDDTRVENMDISDEEDGGALPPGSPEGLEEDEAELELQKQLEKGRRLRQLQQLQQLRDSGEKVLEIVKKLESRQRGWEEEEDPERKGTIVFNATSEFCRTLGEIPTYGLAGNREEQEELMDFERDEERSANGGSESDGEENIGWSTVNLDEEKQHQDFSASSTTILDEEPIVNRGLAAALLLCQNKGLLETTVQKVARVKAPNKSLPSAVYCIEDKMAIDDKYSRREEYRGFTQDFKEKDGYKPDVKIEYVDETGRKLTPKEAFRQLSHRFHGKGSGKMKTERRMKKLDEEALLKKMSSSDTPLGTVALLQEKQKAQKTPYIVLSGSGKSMNANTITK
binding: binds
